# Some of the results follow.
# Protein sequences, listed by entry. Tags and fused reporters are not part of them. Lines headed by an entry give the natural chain unless they say otherwise; changes in a name come on top.
# UniProt Q5EBL8: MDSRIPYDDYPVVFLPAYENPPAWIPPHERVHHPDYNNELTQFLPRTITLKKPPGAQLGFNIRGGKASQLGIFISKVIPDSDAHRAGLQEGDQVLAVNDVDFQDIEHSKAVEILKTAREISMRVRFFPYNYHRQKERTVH
# UniProt Q8N5Y8: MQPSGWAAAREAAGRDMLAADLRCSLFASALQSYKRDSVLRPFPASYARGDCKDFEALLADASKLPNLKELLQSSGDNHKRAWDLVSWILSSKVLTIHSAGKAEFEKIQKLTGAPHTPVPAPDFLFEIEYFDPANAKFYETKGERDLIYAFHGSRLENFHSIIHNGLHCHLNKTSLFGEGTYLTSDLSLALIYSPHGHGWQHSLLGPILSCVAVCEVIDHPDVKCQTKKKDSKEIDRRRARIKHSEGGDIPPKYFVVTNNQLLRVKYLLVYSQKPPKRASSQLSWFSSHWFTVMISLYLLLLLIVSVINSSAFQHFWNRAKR
# UniProt O95453: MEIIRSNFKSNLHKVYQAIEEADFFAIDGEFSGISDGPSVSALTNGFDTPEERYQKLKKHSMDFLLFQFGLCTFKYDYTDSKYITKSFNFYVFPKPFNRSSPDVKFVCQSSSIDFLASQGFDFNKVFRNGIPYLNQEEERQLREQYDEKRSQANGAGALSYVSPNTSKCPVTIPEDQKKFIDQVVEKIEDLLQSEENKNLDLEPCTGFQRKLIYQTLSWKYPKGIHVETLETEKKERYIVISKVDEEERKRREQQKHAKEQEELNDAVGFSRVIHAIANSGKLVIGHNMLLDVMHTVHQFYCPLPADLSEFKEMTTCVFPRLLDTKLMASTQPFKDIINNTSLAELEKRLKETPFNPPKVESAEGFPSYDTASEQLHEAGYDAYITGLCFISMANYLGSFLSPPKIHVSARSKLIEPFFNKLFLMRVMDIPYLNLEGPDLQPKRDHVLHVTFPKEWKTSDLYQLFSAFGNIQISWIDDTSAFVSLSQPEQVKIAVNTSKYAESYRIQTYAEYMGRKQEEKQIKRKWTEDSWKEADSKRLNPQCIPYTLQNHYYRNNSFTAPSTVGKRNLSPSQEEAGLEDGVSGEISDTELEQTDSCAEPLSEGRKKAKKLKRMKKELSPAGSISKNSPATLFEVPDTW
# UniProt P68402: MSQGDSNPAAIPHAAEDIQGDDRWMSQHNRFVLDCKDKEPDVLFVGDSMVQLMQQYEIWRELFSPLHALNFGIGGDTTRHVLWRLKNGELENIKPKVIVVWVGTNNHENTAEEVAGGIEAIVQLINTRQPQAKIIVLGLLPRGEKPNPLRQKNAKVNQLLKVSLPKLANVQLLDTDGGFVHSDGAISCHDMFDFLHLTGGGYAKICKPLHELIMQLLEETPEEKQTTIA
# UniProt Q8IZL8: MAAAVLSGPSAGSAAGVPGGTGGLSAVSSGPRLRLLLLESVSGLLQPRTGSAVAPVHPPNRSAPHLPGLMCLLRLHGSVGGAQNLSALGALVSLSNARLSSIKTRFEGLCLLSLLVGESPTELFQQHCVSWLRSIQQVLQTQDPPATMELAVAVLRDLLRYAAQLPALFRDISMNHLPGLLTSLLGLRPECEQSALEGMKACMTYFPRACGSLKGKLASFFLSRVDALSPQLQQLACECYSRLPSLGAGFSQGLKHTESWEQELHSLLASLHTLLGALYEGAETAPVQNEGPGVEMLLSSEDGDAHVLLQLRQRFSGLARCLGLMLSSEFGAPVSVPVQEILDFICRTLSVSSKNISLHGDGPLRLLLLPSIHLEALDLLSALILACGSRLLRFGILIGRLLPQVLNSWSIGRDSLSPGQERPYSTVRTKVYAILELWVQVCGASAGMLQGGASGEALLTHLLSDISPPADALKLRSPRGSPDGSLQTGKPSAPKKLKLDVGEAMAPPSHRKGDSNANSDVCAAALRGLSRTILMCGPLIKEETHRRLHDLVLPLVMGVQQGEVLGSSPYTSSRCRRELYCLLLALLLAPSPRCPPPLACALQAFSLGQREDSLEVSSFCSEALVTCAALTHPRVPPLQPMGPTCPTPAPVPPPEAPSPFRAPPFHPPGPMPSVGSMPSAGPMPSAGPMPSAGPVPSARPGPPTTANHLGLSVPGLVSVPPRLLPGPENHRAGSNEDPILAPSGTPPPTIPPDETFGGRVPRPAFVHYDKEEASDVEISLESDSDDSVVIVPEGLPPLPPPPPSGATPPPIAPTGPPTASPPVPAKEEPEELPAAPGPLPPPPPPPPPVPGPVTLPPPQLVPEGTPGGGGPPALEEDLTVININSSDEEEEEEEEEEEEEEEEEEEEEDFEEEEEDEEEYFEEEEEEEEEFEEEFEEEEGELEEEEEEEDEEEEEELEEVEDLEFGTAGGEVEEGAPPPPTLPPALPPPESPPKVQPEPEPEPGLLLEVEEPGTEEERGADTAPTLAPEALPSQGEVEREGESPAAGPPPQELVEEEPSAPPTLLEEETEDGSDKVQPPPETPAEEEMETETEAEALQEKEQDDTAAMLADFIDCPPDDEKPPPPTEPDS
# UniProt Q9NR12, whole entry, looked up: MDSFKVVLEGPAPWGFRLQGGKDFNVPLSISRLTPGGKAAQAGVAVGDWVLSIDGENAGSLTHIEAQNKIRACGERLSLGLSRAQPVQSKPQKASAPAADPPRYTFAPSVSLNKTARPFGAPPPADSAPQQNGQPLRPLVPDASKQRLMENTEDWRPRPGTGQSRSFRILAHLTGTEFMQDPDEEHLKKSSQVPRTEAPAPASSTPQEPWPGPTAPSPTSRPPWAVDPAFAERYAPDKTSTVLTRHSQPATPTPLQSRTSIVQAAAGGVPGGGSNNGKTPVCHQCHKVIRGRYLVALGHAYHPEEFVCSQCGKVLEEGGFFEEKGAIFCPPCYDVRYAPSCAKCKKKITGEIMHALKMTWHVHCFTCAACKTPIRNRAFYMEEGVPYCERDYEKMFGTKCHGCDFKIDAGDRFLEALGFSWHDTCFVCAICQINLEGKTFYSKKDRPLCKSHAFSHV
# UniProt Q16822, whole entry, looked up: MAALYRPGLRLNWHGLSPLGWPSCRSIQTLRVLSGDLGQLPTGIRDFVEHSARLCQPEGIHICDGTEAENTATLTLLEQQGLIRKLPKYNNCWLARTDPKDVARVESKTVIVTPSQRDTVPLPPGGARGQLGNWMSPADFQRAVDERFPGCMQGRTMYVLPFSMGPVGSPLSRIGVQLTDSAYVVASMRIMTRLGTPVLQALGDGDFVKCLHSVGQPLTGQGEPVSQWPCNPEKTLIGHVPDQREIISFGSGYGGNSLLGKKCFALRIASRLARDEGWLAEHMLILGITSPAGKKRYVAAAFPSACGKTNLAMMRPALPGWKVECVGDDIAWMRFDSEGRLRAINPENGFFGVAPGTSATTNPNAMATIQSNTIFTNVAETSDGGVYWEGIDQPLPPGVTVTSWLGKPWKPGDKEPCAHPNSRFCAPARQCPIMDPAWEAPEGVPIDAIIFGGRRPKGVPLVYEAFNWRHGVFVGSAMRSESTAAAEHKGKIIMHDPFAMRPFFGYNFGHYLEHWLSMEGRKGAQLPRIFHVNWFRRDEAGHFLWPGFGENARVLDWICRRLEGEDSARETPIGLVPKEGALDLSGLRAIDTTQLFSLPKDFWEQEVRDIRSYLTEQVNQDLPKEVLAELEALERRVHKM
# UniProt O43924: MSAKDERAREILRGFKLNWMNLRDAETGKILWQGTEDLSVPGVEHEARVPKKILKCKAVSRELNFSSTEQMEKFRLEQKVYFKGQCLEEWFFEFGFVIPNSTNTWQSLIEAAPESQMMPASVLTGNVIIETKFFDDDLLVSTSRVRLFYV
# UniProt Q86SE9: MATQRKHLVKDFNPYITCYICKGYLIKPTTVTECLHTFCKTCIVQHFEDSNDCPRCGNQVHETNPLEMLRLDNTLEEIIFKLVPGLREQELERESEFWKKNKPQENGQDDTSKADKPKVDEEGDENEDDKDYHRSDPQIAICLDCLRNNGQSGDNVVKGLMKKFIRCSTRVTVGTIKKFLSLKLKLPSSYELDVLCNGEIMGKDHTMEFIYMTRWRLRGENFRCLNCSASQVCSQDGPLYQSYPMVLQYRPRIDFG
# UniProt P51160: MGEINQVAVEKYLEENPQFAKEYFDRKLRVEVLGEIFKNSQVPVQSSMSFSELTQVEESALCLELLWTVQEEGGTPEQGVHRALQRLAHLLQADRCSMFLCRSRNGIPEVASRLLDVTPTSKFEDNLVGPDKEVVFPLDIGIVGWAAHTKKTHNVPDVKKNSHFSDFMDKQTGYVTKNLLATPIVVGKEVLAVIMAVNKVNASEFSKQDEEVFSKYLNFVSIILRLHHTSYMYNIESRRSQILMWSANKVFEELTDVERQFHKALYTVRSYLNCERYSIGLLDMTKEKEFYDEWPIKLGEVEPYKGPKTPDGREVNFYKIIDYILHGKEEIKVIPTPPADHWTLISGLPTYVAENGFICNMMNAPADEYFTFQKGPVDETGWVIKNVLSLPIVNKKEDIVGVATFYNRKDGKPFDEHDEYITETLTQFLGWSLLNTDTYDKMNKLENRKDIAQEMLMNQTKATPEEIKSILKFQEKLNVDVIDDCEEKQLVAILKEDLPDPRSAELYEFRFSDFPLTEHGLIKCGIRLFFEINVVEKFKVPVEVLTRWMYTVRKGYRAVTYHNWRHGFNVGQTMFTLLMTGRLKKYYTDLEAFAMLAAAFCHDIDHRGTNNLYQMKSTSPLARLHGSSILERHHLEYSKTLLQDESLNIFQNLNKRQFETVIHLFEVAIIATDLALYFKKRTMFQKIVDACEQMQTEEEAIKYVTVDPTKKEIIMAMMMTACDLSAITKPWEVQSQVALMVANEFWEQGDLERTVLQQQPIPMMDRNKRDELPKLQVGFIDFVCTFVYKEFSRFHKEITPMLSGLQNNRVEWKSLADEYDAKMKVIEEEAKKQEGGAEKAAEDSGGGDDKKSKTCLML
# UniProt O96013: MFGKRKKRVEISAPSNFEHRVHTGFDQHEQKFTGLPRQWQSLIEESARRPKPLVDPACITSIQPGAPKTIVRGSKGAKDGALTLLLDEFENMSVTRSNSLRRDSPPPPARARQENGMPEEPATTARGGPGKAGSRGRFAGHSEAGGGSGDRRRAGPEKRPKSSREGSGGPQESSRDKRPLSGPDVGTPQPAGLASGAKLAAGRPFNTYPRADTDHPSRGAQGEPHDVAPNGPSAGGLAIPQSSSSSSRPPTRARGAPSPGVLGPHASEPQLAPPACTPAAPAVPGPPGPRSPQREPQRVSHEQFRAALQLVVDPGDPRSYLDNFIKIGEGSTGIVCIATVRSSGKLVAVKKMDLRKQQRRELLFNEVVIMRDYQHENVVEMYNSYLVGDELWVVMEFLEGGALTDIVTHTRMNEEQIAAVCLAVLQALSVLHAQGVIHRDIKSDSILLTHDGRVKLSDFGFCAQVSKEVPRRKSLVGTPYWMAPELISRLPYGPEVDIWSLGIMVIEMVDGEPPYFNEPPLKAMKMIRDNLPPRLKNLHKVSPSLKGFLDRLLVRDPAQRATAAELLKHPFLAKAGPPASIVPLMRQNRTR
# UniProt Q15121, whole entry, looked up: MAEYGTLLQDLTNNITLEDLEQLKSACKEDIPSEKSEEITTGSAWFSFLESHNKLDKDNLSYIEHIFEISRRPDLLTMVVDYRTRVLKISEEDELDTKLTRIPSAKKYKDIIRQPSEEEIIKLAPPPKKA
# UniProt Q92968: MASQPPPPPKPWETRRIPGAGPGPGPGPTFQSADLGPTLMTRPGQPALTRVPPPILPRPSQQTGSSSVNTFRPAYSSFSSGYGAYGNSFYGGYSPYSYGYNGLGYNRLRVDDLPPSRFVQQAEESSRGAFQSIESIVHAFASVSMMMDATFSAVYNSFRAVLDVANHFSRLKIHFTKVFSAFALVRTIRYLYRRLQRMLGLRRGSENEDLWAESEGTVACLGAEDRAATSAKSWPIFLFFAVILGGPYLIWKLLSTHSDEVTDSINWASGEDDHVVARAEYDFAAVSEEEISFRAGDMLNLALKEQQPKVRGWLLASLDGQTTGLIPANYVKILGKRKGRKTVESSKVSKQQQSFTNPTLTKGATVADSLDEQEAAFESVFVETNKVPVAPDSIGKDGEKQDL
# UniProt P40425: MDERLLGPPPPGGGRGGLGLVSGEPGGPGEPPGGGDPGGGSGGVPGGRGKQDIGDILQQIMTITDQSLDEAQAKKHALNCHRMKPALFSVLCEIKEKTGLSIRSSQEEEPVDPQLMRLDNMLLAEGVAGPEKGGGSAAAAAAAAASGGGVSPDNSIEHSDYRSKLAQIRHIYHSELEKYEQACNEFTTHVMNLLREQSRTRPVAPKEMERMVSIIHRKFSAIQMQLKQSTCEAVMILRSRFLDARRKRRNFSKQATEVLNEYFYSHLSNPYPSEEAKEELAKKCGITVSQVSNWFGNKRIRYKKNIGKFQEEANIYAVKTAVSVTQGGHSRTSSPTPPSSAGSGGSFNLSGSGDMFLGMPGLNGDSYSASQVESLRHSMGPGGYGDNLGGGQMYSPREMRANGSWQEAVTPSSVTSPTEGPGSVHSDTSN
# Experiments:
# Test in all cases: log2 fold change, soluble protein after heating vs DMSO (PISA); higher = thermal stabilisation; K562 cells, 10 uM, 30 min; active = over 0.2 and 3.5 SD of the protein, either way, in both replicates (recomputed)
# [1] = compound: CS(=O)(=O)c1ccc(-c2cnc(N)c(C(=O)Nc3ccccc3)n2)cc1
# Summary of the method: (§1)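 Quantification of soluble protein used TMTpro 16plex LC-MS/MS, with channel sums equalised. Samples were the supernatant after 21,000xg for 90 min of pooled aliquots from K562 cells (2×10^6 cells/mL) treated with 10 μM compound for 30 min, heated for 3 min over 48°C-58°C, and extracted in PBS with 0.5% NP-40 at 4°C. Values, from duplicates, describe thermal stability against control samples on a log2 fold-change scale.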
# [2] = compound: C[C@@H](Oc1cc(-c2cnn(C3CCNCC3)c2)cnc1N)c1c(Cl)ccc(F)c1Cl [crizotinib]
# Summary of the method: as §1
# [3] = compound: C[C@@H]1COCCN1C2=NC(=NC(=C2)C3(CC3)S(=O)(=O)C)C4=C5C=CNC5=CC=C4
# Summary of the method: as §1
# [4] = compound: C[C@H](C1=CC=C(C=C1)C(=O)NC2=C3C=CNC3=NC=C2)N
# Summary of the method: as §1
# [5] = compound: Cc1cc(Nc2cc(CN3CCOCC3)c3nc(C)c(Cc4ccc(Cl)cc4F)n3n2)n[nH]1 [gandotinib]
# Summary of the method: as §1
# [6] = compound: Cc1cc(SCc2sc(-c3ccc(C(F)(F)F)cc3)nc2C)ccc1OCC(=O)O
# Summary of the method: as §1
# [7] = compound: Cc1ccc(-n2nc(C(C)(C)C)cc2NC(=O)Nc2ccc(OCCN3CCOCC3)c3ccccc23)cc1 [doramapimod]
# Summary of the method: as §1
# [8] = compound: Cc1ccc(C(=O)N(CCCN)[C@@H](c2nc3cc(Cl)ccc3c(=O)n2Cc2ccccc2)C(C)C)cc1 [ispinesib]
# Summary of the method: as §1
# [9] = compound: Cc1ccc(NC(=O)c2ccc(CN3CC[C@H](N(C)C)C3)c(C(F)(F)F)c2)cc1Nc1nccc(-c2cncnc2)n1 [bafetinib]
# Summary of the method: as §1
# [10] = compound: Cc1cccc(CC(=O)N2CCc3c2ccc(-c2cn(C)c4ncnc(N)c24)c3F)n1
# Summary of the method: as §1
# [11] = compound: Cc1cn(-c2cc(NC(=O)c3ccc(C)c(Nc4nccc(-c5cccnc5)n4)c3)cc(C(F)(F)F)c2)cn1 [nilotinib]
# Summary of the method: as §1
# [12] = compound: Cc1nc(Nc2n[nH]c3c2CN(C(=O)N[C@H](CN(C)C)c2ccccc2)C3(C)C)c2sccc2n1
# Summary of the method: as §1
# [13] = compound: Cc1nc(Nc2ncc(C(=O)Nc3c(C)cccc3Cl)s2)cc(N2CCN(CCO)CC2)n1 [dasatinib]
# Summary of the method: as §1
# [14] = compound: Cc1ncc(-c2ccnc(Nc3ccc(S(C)(=O)=O)cc3)n2)n1C(C)C
# Summary of the method: as §1
# [15] = compound: Cn1cc(-c2ccc3c(c2)CCN3C(=O)Cc2cccc(C(F)(F)F)c2)c2c(N)ncnc21
# Summary of the method: as §1
# [16] = compound: Cn1cc(-c2ccc3nnc(C(F)(F)c4ccc5ncccc5c4)n3n2)cn1
# Summary of the method: as §1
# [17] = compound: Cn1cncc1[C@@](N)(c1ccc(Cl)cc1)c1ccc2c(c1)c(-c1cccc(Cl)c1)cc(=O)n2C [tipifarnib]
# Summary of the method: as §1
# [18] = compound: FC(F)(F)c1ccc(/C=C/c2nc(COc3ccc(CCCCn4ccnn4)cc3)co2)cc1 [mubritinib]
# Summary of the method: as §1
# [19] = compound: C[C@H](Nc1ncnc2nc[nH]c12)c1cc2cccc(Cl)c2c(=O)n1-c1ccccc1 [duvelisib]
# Summary of the method: as §1
# [20] = compound: Cc1cc(Nc2cc(N3CCN(C)CC3)nc(Sc3ccc(NC(=O)C4CC4)cc3)n2)n[nH]1 [tozasertib]
# Summary of the method: as §1
Target,log2 fold change [1],log2 fold change [2],log2 fold change [3],log2 fold change [4],log2 fold change [5],log2 fold change [6],log2 fold change [7],log2 fold change [8],log2 fold change [9],log2 fold change [10],log2 fold change [11],log2 fold change [12],log2 fold change [13],log2 fold change [14],log2 fold change [15],log2 fold change [16],log2 fold change [17],log2 fold change [18],log2 fold change [19],log2 fold change [20]
PCGF2 (UniProt P35227),inactive: 0.041,inactive: 0.01,inactive: 0.075,inactive: 0.087,inactive: 0.121,inactive: 0.15,inactive: -0.089,inactive: 0.021,inactive: 0.015,inactive: -0.035,inactive: -0.097,inactive: -0.235,inactive: -0.127,inactive: 0.028,inactive: 0.004,inactive: 0.081,inactive: 0.001,inactive: -0.001,–,–
PDZD11 isoform 2 (UniProt Q5EBL8),inactive: 0.062,inactive: 0.044,inactive: 0.089,–,inactive: 0.013,inactive: 0.04,inactive: 0.073,inactive: 0.048,inactive: -0.022,inactive: -0.016,inactive: -0.02,inactive: -0.033,inactive: 0.043,inactive: 0.022,–,inactive: 0,inactive: -0.058,inactive: 0.057,inactive: 0.12,inactive: 0.055
PARP16 isoform 3 (UniProt Q8N5Y8),inactive: -0.008,inactive: 0.076,inactive: -0.021,inactive: 0.079,inactive: 0.081,inactive: -0.081,inactive: 0.072,–,inactive: 0.096,inactive: -0.005,inactive: -0.034,inactive: -0.019,inactive: -0.009,inactive: 0.053,inactive: 0.011,–,inactive: -0.092,inactive: 0.089,–,–
PDE4DIP isoform 4 (UniProt Q5VU43),inactive: -0.007,inactive: 0.02,inactive: 0.134,inactive: -0.002,inactive: 0.106,inactive: 0.008,inactive: 0.01,inactive: -0.073,inactive: 0.022,inactive: -0.071,inactive: -0.054,inactive: -0.113,inactive: 0.037,inactive: -0.027,inactive: 0.021,inactive: 0.021,inactive: 0.038,inactive: 0.022,–,–
PARN (UniProt O95453),inactive: 0.028,inactive: -0.095,inactive: 0.125,inactive: -0.025,inactive: -0.127,inactive: 0.069,inactive: -0.037,inactive: -0.021,inactive: -0.104,inactive: 0.019,inactive: -0.018,inactive: -0.073,inactive: -0.182,inactive: -0.011,inactive: -0.003,inactive: 0.018,inactive: -0.01,inactive: 0.076,–,–
PAFAH1B2 (UniProt P68402),inactive: 0.016,inactive: -0.017,inactive: -0.13,inactive: -0.054,inactive: 0.16,inactive: -0.066,inactive: 0.022,inactive: -0.002,inactive: -0.025,inactive: 0.035,inactive: 0.067,inactive: -0.121,inactive: -0.011,inactive: -0.075,inactive: 0.024,inactive: 0.003,inactive: 0.188,inactive: 0.092,–,–
PCBP2 (UniProt F8VRH0),inactive: -0.181,inactive: -0.075,inactive: -0.22,inactive: -0.267,inactive: 0.013,inactive: 0.074,inactive: -0.225,–,inactive: 0.293,inactive: -0.039,inactive: -0.347,inactive: -0.215,inactive: -0.146,inactive: -0.009,inactive: 0.112,–,inactive: 0.067,inactive: 0.129,–,–
PELP1 (UniProt Q8IZL8),inactive: -0.006,inactive: -0.012,inactive: -0.107,inactive: -0.024,inactive: -0.282,inactive: 0.111,inactive: 0.019,inactive: 0.004,inactive: 0.005,inactive: -0.115,inactive: -0.007,inactive: 0.007,inactive: 0.004,inactive: -0.047,inactive: 0.064,inactive: -0.034,inactive: 0.063,inactive: -0.009,–,–
PDLIM7 (UniProt Q9NR12),inactive: -0.01,inactive: -0.075,inactive: -0.002,inactive: -0.05,inactive: 0.026,inactive: 0.004,inactive: 0.012,inactive: -0.075,inactive: -0.01,inactive: 0.107,inactive: 0,inactive: -0.078,inactive: -0.036,inactive: -0.01,inactive: 0.006,inactive: -0.048,inactive: -0.091,inactive: -0.042,–,–
PCYT1B (UniProt Q9Y5K3),inactive: -0.008,inactive: -0.109,inactive: 0.147,inactive: -0.109,inactive: -0.088,inactive: 0.044,inactive: -0.036,inactive: 0.12,inactive: -0.193,inactive: -0.068,active: -1.28,inactive: -0.105,inactive: -0.142,inactive: -0.089,inactive: -0.024,inactive: -0.037,inactive: -0.053,inactive: 0.168,–,–
PDS5A (UniProt Q29RF7),inactive: 0.03,inactive: -0.383,inactive: 0.063,inactive: 0.043,inactive: -0.099,inactive: 0.182,inactive: -0.057,inactive: -0.127,inactive: -0.055,inactive: 0.008,inactive: -0.397,inactive: -0.164,inactive: -0.3,inactive: 0.001,inactive: 0.08,inactive: 0.123,inactive: -0.231,inactive: 0.157,–,–
PCK2 (UniProt Q16822),inactive: 0.009,inactive: 0.17,inactive: 0.01,inactive: -0.098,inactive: 0,inactive: -0.012,inactive: 0,inactive: 0.076,inactive: -0.052,inactive: 0.027,inactive: -0.05,inactive: 0.027,inactive: -0.035,inactive: -0.006,inactive: 0.041,inactive: 0.003,inactive: 0,inactive: -0.022,–,–
PDE6D (UniProt O43924),inactive: -0.165,inactive: 0.001,inactive: 0.079,inactive: -0.148,inactive: -0.202,inactive: -0.098,inactive: 0.084,–,inactive: 0.266,inactive: 0.169,inactive: 0.191,inactive: -0.238,inactive: 0.026,inactive: 0.011,inactive: 0.385,–,–,inactive: 0.565,–,–
PCGF5 (UniProt Q86SE9),inactive: 0.043,inactive: 0.007,inactive: -0.055,–,–,inactive: 0.319,inactive: 0.125,inactive: 0.232,inactive: 0.041,–,–,–,inactive: -0.49,–,–,inactive: 0.142,–,–,inactive: 0.153,–
PDE6C (UniProt P51160),inactive: -0.111,inactive: -0.008,–,inactive: 0,–,inactive: 0.001,inactive: -0.013,inactive: 0.004,inactive: 0.124,–,inactive: -0.28,inactive: 0.116,inactive: -0.079,inactive: -0.178,inactive: 0.148,inactive: 0.066,inactive: -0.139,inactive: -0.027,inactive: -0.132,inactive: -0.02
PAK4 (UniProt O96013),inactive: -0.028,inactive: -0.033,inactive: 0.058,inactive: -0.017,inactive: -0.028,inactive: 0.021,inactive: -0.042,inactive: -0.111,inactive: -0.072,inactive: 0.011,inactive: -0.016,active: 0.352,inactive: -0.068,inactive: 0.01,inactive: 0.04,inactive: 0.007,inactive: 0.015,inactive: -0.092,–,–
PEA15 isoform 2 (UniProt Q15121),inactive: 0.012,inactive: 0.136,inactive: 0.141,inactive: -0.048,inactive: -0.073,inactive: 0.048,inactive: 0.003,inactive: 0.034,inactive: -0.077,inactive: -0.008,inactive: 0,active: -0.4,inactive: -0.026,inactive: -0.004,inactive: 0.036,inactive: 0.021,inactive: 0.04,inactive: 0.054,–,–
PEX13 (UniProt Q92968),inactive: -0.005,inactive: -0.146,inactive: 0.034,inactive: -0.047,inactive: -0.143,inactive: -0.016,inactive: 0.056,inactive: -0.026,inactive: -0.159,inactive: 0.106,inactive: -0.046,inactive: 0,inactive: 0.014,inactive: 0.035,inactive: -0.071,inactive: -0.075,inactive: -0.027,inactive: 0.042,–,–
PBX2 (UniProt P40425),inactive: -0.001,inactive: -0.14,inactive: 0.026,inactive: -0.051,active: -0.632,inactive: 0.095,inactive: 0.119,inactive: -0.102,inactive: 0.019,inactive: 0.042,inactive: -0.057,inactive: -0.071,inactive: -0.202,inactive: -0.034,inactive: 0.013,inactive: -0.091,inactive: -0.116,inactive: 0.027,–,–

# Just log2 fold change [17] and log2 fold change [5], for some of the entries so far:
Target | log2 fold change [17] | log2 fold change [5]
PEA15 isoform 2 (UniProt Q15121) | inactive: 0.04 | inactive: -0.073
PEX13 (UniProt Q92968) | inactive: -0.027 | inactive: -0.143
